Laboratory results as given in patent publication US20170002074A1.

Experiments:
[1] = target: Cynomolgus monkey CD33 (cynomolgus monkey); experiment: FACS, HEK293AD cells stably expressing cynomolgus CD33
[2] = target: Cynomolgus monkey CD33 (cynomolgus monkey); experiment: FACS, stable cell line expressing recombinant cynomolgus monkey CD33
[3] = target: Cynomolgus monkey CD33 (cynomolgus monkey); experiment: FACS of cynomolgus blood, endogenous CD33 on CD14+/CD33+ myeloid cells
[4] = target: Cynomolgus monkey CD33 (cynomolgus monkey); experiment: FACS on HEK293AD cells stably expressing recombinant cynoCD33, fluorescent anti-IgG secondary

Measured: binding

B1: 27C6 (antibody, V domains shown)
VH: EVQLQQSGPELVKPGASVKVSCKASGYAFTSYNMYWVKQSHGKSLEWIGYIDPYNGGTRHNQKFKDKATLTVDKSSSTAYMHLNSLTSEDSAVYYCASQNYEYFDYWGQGTTLTVSS
VL: DIVLTQSPKFMSTSVGDRVSITCKASQDVGDAVAWYQQKPGQSPKLLFYWTSTRHTGVPDRFTGSGSGTEFTLTIRNVQSEDLADYFCQQYRSTPLTFGSGTKVEIK
binds: all assays above

No constants are given. Whether binding was seen depends on the method and setting. Binding calls can cover weak binding; strength is not graded here.
